Laboratory results published in US9688678B2, “Oxindole compounds carrying a nitrogen-bound spiro substituent and use thereof for treating vasopressin-related diseases” (AbbVie Deutschland GmbH & Co. KG, priority 2014, dated 2017).
For at least one compound, name, drawing or mass did not settle the structure.

Amino acid sequences for entries named in this document (tags omitted).
UniProt P37288, whole entry: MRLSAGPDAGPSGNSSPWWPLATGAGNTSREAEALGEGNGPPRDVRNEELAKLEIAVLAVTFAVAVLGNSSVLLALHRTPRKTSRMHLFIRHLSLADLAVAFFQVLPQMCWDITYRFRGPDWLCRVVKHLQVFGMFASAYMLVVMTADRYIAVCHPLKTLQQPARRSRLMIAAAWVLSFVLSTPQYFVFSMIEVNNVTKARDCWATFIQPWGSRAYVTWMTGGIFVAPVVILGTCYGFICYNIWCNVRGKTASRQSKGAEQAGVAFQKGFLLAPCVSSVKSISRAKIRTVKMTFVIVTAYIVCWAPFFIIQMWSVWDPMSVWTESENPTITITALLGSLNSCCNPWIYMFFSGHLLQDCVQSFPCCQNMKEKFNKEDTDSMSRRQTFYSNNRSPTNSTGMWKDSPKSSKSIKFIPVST

Biological target: human vasopressin V1a receptor (Homo sapiens (Human), UniProt P37288)
Experiment: Vasopressin V1a receptor binding assay
Details: selectivity quotient, human V1a vs human V1b receptor
Protocol: The test substances were dissolved in a concentration of 5 mM M in DMSO. Further dilution of these DMSO solutions took place as described for V1b.
The membrane pellet was again homogenized in a High-Pressure-Homogenizer, Polytec 50K at 1500 PSI (Heinemann, Germany) and subsequently taken up in 50 mM Tris-HCl, pH 7.4, homogenized and stored in aliquots frozen in liquid nitrogen at −190° C.
The incubation buffer was: 50 mM Tris, 10 mM MgCl2, 0.1% BSA, pH 7.4.
Duplicate determinations were carried out.
After incubation (60 minutes at room temperature), the samples were processed as described for V1b.
The binding parameters were calculated by nonlinear regression in SAS.

CCOc1ncccc1C1(N2CC3(CN(C4CCN(C)CC4)C3)C2)C(=O)N(S(=O)(=O)c2ccc(OC)cc2)c2ccc(C#N)cc21 (racemic) [Example 12, (±)-3-(2-ethoxy-3-pyridyl)-1-(4-methoxyphenyl)sulfonyl-3-[2-(1-methyl-4-piperidyl)-2,6-diazaspiro[3.3]heptan-6-yl]-2-oxo-indoline-5-carbonitrile]
Ki(h-V1a)/ Ki(h-V1b): + (10-<25)
